Survivor count and T/C data for 18 compounds are collected here from PubChem BioAssay AID248 (DTP/NCI, 2004).

The structures appear in SMILES notation. The list does not hold the whole screen: it is rich in T/C values a quarter to a half above the control, in often repeated tests (any T/C) and in doses without a T/C. Further doses and runs are listed elsewhere. T/C is the treated group as % of the vehicle group. Some entries give survivors of the animals treated and no T/C: the source files T/C as zero there, which appears to mark a toxic dose or a test without result, not a measured value. Some survivor counts are full or nearly so, which does not show that the dose was tolerated: the source hardly ever lists a survival T/C far under the control, and the zero likely stands for such cases as well. Survivors were counted at the toxicity check, usually on the fifth day, unless a day is given; later deaths do not show. Schedules are NCI's codes, taken here to give the interval after Q, in days (D) or hours (H), and the number of doses after X. Counts like (3×) count equal records among those shown. Where survival is the endpoint, the PubChem record calls one and a half times the control and up active, and a quarter to a half above the control has no call in these data; cut-offs in other NCI protocols can differ. Some T/C values carry the count of animals alive at the toxicity check (mostly the fifth day); where none is given, no animal had died by that day.

The subject of this assay is L1210 leukemia ip in BDF1 mice, survival T/C. Briefly: NCI In Vivo Anticancer Drug Screen. Data for tumor model L1210 Leukemia (intraperitoneal) in B6D2F1 (BDF1) mice. The note with it: T/C endpoint: mean survival time, higher T/C = longer survival.
The mark [1] stands for this setting: dose: 400.0 mg/kg/injection, schedule: Q01DX009 (ip), vehicle: Klucel (hydroxypropylcellulose) (HPC).
Where [2] appears, read: dose: 100.0 mg/kg/injection, schedule: Q01DX001 (ip), vehicle: saline.
Setting [3] is: dose: 200.0 mg/kg/injection, schedule: Q01DX001 (ip), vehicle: saline.
[4] abbreviates: dose: 400.0 mg/kg/injection, schedule: Q01DX001 (ip), vehicle: saline.
The mark [5] stands for this setting: dose: 200.0 mg/kg/injection, schedule: Q01DX009 (ip), vehicle: Klucel (hydroxypropylcellulose) (HPC).
Setting [6] is: dose: 400.0 mg/kg/injection, schedule: Q04DX003 (ip), vehicle: saline with Tween-80.

In the case of `O=C(O)c1cccnc1C(=O)O.[Cu+2]`, the survivor count is, setting by setting: (dose: 12.5 mg/kg/injection, schedule: Q01DX009 (ip), vehicle: Klucel (hydroxypropylcellulose) (HPC)) 2 of 6; (dose: 25.0 mg/kg/injection, schedule: Q01DX009 (ip), vehicle: Klucel (hydroxypropylcellulose) (HPC)) 3 of 6; (dose: 25.0 mg/kg/injection, schedule: Q04DX003 (ip), vehicle: Klucel (hydroxypropylcellulose) (HPC)) 1 of 6; (dose: 50.0 mg/kg/injection, schedule: Q01DX001 (ip), vehicle: other) 0 of 6; (dose: 100.0 mg/kg/injection, schedule: Q01DX001 (ip), vehicle: Klucel (hydroxypropylcellulose) (HPC)) 0 of 6 (2×); (dose: 200.0 mg/kg/injection, schedule: Q01DX001 (ip), vehicle: Klucel (hydroxypropylcellulose) (HPC)) 1 of 6 (2×). In addition, the survivor count (dose: 400.0 mg/kg/injection, schedule: Q01DX001 (ip), vehicle: Klucel (hydroxypropylcellulose) (HPC)) is 0 of 6 (2×).

Take `CS(=O)(=O)n1c(CBr)nc2ccccc21`: the survivor count (dose: 400.0 mg/kg/injection, schedule: Q04DX003 (ip), vehicle: saline sonified) is reported as 0 of 6.

For the compound `O=c1[nH]c(Nc2ccccc2)c([N+](=O)[O-])c(=O)[nH]1`, the survivor count is, setting by setting: (dose: 150.0 mg/kg/injection, schedule: Q01DX001 (ip), vehicle: Klucel (hydroxypropylcellulose) (HPC)) 0 of 6; (dose: 300.0 mg/kg/injection, schedule: Q01DX001 (ip), vehicle: Klucel (hydroxypropylcellulose) (HPC)) 2 of 6.

Consider `Cc1cc(C(N)=O)c(C#N)c(=O)[nH]1`, for which, where the note is “dose: 300.0 mg/kg/injection, schedule: Q01DX001 (ip), vehicle: steroid suspending solution”, the survivor count is listed as 2 of 6.

Turning to `CC(C)C(NC(=O)C(CSCc1ccccc1)NC(=O)OCc1ccccc1)C(N)=O` (stereo not given), the survivor count under setting [1] is 5 of 6.

`CCCCCCCCCCCCCCCC[N+]1(C)CCS(C)(OS(=O)(=O)OC)CC1` (stereo not given): the survivor count reads like this: under setting [2], 0 of 3; under setting [3], 0 of 3; under setting [4], 0 of 3.

With `CCOCCN1CCN(CCCN2c3ccccc3Sc3ccc(C(F)(F)F)cc32)CC1`, the survivor count is listed as 6 of 6 (dose: 3.12 mg/kg/injection, schedule: Q01DX009 (ip), vehicle: water); 5 of 6 (dose: 6.25 mg/kg/injection, schedule: Q01DX009 (ip), vehicle: water); 6 of 6 (dose: 12.5 mg/kg/injection, schedule: Q01DX009 (ip), vehicle: water); 5 of 6 (dose: 25.0 mg/kg/injection, schedule: Q01DX009 (ip), vehicle: water); 3 of 6 (dose: 50.0 mg/kg/injection, schedule: Q01DX009 (ip), vehicle: water); 1 of 6 (dose: 200.0 mg/kg/injection, schedule: Q04DX003 (ip), vehicle: water). For the same compound, the survivor count (dose: 400.0 mg/kg/injection, schedule: Q04DX003 (ip), vehicle: water) is given as 0 of 6. Besides, the T/C (dose: 35.0 mg/kg/injection, schedule: Q04DX003 (ip), vehicle: other) was 136 % of control and the T/C (dose: 50.0 mg/kg/injection, schedule: Q04DX003 (ip), vehicle: water) is 127 % of control [5 of 6 alive].

As to `O=C(O)[C@@H]1C[C@H]1c1ccccc1`, the survivor count (dose: 200.0 mg/kg/injection, schedule: Q04DX002 (ip), vehicle: saline with Tween-80) is reported as 3 of 3 and the survivor count (dose: 400.0 mg/kg/injection, schedule: Q04DX002 (ip), vehicle: saline with Tween-80) is 3 of 3.

`O=C(Nc1cc(Cl)cc2c1-c1c(Cl)cc(Cl)cc1C2)C(Cl)Cl`: the survivor count by setting is: under setting [5], 1 of 6; under setting [1], 0 of 6.

Take `FC(F)(F)c1nc2nc(Br)c(Br)nc2[nH]1`: the T/C (dose: 200.0 mg/kg/injection, schedule: Q04DX003 (ip), vehicle: saline with Tween-80) was 138 % of control [5 of 6 alive] and the T/C under setting [6] is 126 % of control [4 of 6 alive]. Also, the survivor count under setting [6] is 1 of 6 (2×) and the survivor count (dose: 600.0 mg/kg/injection, schedule: Q04DX003 (ip), vehicle: saline with Tween-80) is 0 of 6.

`CC(C)=CCN1CCC2(C)c3cc(O)ccc3CC1C2C` (stereo not given): under setting [1], the survivor count is reported as 1 of 6.

For `N#Cc1ccc[n+](CCc2c[nH]c3ccccc23)c1`, the survivor count is 3 of 6 (dose: 150.0 mg/kg/injection, schedule: Q01DX001 (ip), vehicle: saline) and 0 of 6 (dose: 300.0 mg/kg/injection, schedule: Q01DX001 (ip), vehicle: saline).

With `CC(C)(C)c1nc2ccc([N+](=O)[O-])cc2[nH]1`, the survivor count is listed as 6 of 6 (dose: 75.0 mg/kg/injection, schedule: Q01DX009 (ip), vehicle: other); 5 of 6 (dose: 150.0 mg/kg/injection, schedule: Q01DX009 (ip), vehicle: other); 2 of 6 (dose: 300.0 mg/kg/injection, schedule: Q04DX003 (ip), vehicle: other).

With `C[N+](C)(C)CC(O)CC#N` (stereo not given), the survivor count (dose: 50.0 mg/kg/injection, schedule: Q01DX009 (ip), vehicle: Klucel (hydroxypropylcellulose) (HPC)) is reported as 5 of 6; the survivor count (dose: 100.0 mg/kg/injection, schedule: Q01DX009 (ip), vehicle: Klucel (hydroxypropylcellulose) (HPC)) is on record as 2 of 6; the survivor count under setting [5] is 0 of 6.

For `CC1CC(C)(C)[N+](C)=C(CC(O)(c2ccccc2)c2ccccc2)O1` (stereo not given), the survivor count (dose: 100.0 mg/kg/injection, schedule: Q04DX003 (ip), vehicle: Klucel (hydroxypropylcellulose) (HPC)) is 0 of 6; the survivor count (dose: 200.0 mg/kg/injection, schedule: Q04DX003 (ip), vehicle: Klucel (hydroxypropylcellulose) (HPC)) is recorded as 0 of 6; the survivor count (dose: 400.0 mg/kg/injection, schedule: Q04DX003 (ip), vehicle: Klucel (hydroxypropylcellulose) (HPC)) was 0 of 6.

`CCCCCCCCCCNC(=O)C[n+]1cccc(C(=O)NC)c1`: where the note is “dose: 50.0 mg/kg/injection, schedule: Q04DX003 (ip), vehicle: saline”, the survivor count is 5 of 6.

As to `Sc1ccc(Cl)cc1.[Pb]`, under “dose: 100.0 mg/kg/injection, schedule: Q01DX009 (ip), vehicle: gum acacia”, the survivor count was 3 of 3.

With `CS(=O)(=O)OCCN(CCOS(C)(=O)=O)c1cccc(N)c1`, the T/C by setting is: (dose: 2.4 mg/kg/injection, schedule: Q01DX001 (ip), vehicle: saline) 131 % of control; (dose: 3.6 mg/kg/injection, schedule: Q01DX001 (ip), vehicle: saline) 140 % of control; (dose: 4.0 mg/kg/injection, schedule: Q01DX001 (ip), vehicle: saline) 138 % of control; (dose: 5.3 mg/kg/injection, schedule: Q01DX001 (ip), vehicle: saline) 137 % of control. Further, the survivor count is 3 of 6 (dose: 8.0 mg/kg/injection, schedule: Q01DX001 (ip), vehicle: saline); 2 of 4 (dose: 10.0 mg/kg/injection, schedule: Q01DX001 (ip), vehicle: saline); 1 of 6 (dose: 12.0 mg/kg/injection, schedule: Q01DX001 (ip), vehicle: saline); 0 of 4 (dose: 20.0 mg/kg/injection, schedule: Q01DX001 (ip), vehicle: saline); 0 of 4 (dose: 40.0 mg/kg/injection, schedule: Q01DX001 (ip), vehicle: saline); 0 of 6 (dose: 50.0 mg/kg/injection, schedule: Q01DX001 (ip), vehicle: saline). The survivor count runs as follows: (dose: 80.0 mg/kg/injection, schedule: Q01DX001 (ip), vehicle: saline) 0 of 4; under setting [2], 0 of 6; under setting [3], 0 of 6; under setting [4], 0 of 6.
